In the supplement of paper PMC10849652:
The list shows a part of the results.

Chains of the proteins cited; added tags and fusions are not shown. Lines headed by an entry give the natural chain unless they say otherwise; changes in a name come on top.
UniProt P58004: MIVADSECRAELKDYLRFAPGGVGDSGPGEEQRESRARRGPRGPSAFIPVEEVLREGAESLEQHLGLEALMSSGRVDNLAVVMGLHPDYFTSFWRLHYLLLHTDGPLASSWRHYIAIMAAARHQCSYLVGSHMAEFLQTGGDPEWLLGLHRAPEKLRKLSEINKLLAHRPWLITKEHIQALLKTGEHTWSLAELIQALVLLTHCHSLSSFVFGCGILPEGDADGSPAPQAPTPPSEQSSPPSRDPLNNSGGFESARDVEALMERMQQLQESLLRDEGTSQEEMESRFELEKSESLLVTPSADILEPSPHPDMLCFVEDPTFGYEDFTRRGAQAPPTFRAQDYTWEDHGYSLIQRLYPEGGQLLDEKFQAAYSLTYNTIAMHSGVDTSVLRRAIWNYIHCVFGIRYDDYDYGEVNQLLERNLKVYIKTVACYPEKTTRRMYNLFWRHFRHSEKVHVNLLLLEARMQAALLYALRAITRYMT
UniProt Q8NC51: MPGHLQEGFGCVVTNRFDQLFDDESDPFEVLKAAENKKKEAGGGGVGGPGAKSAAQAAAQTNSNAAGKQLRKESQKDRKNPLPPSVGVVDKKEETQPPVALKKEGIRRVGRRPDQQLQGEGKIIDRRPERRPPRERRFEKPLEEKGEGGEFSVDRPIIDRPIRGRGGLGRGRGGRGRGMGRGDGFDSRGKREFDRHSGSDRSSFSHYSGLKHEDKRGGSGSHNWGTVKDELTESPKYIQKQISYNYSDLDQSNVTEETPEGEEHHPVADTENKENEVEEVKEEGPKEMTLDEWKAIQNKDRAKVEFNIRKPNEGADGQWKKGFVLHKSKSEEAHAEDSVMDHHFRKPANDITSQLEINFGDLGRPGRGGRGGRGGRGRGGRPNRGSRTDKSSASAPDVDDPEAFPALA
UniProt Q6P4A7: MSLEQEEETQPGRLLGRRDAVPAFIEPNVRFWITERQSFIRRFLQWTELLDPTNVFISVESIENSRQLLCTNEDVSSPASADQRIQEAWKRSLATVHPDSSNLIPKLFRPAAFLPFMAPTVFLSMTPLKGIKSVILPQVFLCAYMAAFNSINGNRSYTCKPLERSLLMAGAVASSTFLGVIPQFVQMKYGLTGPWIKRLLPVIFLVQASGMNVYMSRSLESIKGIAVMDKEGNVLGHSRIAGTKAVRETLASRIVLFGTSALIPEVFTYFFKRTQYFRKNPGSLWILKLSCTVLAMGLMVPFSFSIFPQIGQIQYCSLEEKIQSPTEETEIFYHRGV
UniProt O95562: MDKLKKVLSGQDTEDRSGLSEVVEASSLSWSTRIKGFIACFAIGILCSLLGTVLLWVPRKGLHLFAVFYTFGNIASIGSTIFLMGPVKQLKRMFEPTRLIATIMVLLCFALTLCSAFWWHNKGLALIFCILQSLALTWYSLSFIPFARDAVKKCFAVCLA
UniProt Q96BD8: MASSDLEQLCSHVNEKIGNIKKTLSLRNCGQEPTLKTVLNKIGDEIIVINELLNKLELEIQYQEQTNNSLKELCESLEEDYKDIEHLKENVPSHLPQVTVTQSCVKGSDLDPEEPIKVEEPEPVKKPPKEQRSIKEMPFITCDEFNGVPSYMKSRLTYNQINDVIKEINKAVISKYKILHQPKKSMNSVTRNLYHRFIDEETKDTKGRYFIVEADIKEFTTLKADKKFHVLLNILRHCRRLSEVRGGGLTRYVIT
UniProt Q9GZR1: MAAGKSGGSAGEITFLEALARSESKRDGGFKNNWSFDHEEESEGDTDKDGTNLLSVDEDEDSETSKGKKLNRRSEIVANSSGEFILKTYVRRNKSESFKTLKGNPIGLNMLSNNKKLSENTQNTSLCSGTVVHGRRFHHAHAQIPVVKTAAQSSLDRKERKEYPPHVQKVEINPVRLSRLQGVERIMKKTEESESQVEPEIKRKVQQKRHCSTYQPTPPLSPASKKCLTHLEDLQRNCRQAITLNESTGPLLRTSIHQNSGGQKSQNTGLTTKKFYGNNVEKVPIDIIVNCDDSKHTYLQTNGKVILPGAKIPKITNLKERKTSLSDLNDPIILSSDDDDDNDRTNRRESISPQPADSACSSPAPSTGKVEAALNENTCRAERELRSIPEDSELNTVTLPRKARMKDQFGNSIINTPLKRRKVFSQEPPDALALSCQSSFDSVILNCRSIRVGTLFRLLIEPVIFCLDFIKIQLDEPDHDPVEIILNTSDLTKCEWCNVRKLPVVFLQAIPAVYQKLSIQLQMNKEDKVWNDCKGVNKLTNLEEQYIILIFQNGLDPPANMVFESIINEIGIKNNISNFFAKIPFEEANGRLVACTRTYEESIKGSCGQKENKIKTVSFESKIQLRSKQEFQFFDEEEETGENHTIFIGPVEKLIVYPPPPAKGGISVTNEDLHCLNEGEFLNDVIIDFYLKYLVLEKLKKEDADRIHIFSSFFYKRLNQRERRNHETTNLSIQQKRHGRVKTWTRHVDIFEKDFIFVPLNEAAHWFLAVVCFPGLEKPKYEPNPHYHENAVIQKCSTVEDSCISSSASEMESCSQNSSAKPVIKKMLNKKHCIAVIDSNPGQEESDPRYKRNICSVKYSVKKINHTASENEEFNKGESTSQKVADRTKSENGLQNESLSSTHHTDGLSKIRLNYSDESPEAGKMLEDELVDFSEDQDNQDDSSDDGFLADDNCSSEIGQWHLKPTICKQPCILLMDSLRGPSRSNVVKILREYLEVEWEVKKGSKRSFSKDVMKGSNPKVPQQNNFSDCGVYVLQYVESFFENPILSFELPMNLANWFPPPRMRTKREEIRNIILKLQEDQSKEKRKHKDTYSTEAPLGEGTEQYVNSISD
UniProt O95470: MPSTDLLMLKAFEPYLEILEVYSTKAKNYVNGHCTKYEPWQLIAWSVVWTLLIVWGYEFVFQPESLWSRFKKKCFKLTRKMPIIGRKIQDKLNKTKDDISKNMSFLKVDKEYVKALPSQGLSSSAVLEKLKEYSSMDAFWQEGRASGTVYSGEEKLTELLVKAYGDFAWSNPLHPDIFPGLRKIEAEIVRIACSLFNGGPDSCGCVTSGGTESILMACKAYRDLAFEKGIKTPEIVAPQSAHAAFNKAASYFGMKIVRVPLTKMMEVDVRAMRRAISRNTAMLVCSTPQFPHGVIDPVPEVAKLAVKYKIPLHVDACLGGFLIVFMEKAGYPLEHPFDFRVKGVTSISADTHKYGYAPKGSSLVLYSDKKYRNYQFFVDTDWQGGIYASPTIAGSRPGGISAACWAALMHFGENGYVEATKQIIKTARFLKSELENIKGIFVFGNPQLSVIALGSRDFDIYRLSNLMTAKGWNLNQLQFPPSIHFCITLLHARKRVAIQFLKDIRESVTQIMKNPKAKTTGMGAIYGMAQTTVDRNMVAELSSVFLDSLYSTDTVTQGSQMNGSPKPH
UniProt Q15637: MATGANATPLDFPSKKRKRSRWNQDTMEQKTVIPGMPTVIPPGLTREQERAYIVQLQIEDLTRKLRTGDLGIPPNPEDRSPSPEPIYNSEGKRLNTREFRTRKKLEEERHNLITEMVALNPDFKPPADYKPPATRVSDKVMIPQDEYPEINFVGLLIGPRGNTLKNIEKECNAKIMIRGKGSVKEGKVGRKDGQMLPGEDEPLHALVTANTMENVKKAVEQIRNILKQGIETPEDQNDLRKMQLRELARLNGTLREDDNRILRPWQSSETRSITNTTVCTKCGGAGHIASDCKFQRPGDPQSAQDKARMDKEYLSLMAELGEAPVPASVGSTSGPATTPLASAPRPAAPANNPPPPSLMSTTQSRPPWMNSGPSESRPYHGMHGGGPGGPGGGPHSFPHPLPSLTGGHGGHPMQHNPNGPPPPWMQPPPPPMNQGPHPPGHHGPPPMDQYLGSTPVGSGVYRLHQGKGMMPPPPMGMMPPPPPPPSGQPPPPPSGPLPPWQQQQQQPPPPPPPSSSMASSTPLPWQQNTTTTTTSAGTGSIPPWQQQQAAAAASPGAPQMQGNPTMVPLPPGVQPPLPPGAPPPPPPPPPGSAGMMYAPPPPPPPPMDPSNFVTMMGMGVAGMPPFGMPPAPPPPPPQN
UniProt Q8IX90, whole entry, looked up: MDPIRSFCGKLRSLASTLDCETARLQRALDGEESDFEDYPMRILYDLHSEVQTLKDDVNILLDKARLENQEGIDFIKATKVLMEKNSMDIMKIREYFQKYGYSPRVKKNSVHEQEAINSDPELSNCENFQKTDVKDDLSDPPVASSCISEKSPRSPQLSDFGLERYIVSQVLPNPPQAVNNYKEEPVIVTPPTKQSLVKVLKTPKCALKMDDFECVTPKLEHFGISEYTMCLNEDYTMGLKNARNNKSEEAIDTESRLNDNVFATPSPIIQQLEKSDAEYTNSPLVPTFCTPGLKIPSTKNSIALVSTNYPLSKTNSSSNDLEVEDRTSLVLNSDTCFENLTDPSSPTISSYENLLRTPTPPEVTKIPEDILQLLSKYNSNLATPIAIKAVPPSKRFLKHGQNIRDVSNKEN
UniProt Q96EE3: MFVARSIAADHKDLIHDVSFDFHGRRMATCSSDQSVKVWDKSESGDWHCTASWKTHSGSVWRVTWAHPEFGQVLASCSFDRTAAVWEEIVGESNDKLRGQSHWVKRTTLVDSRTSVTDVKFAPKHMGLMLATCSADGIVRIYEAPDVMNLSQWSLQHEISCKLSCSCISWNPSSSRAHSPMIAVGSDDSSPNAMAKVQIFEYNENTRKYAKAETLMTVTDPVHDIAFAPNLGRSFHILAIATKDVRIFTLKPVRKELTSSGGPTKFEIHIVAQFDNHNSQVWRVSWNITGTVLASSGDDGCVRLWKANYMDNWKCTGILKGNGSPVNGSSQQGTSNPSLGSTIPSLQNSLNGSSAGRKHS
UniProt Q99961: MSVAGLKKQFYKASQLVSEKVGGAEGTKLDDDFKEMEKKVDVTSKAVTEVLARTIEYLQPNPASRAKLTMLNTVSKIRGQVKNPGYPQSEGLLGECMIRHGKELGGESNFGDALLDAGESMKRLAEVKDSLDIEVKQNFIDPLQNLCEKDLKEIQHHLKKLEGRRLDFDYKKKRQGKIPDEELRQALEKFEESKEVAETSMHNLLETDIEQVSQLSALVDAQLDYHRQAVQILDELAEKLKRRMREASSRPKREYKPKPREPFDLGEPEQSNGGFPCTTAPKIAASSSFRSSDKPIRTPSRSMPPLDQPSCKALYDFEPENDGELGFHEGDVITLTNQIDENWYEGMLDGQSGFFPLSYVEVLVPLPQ
UniProt Q587I9: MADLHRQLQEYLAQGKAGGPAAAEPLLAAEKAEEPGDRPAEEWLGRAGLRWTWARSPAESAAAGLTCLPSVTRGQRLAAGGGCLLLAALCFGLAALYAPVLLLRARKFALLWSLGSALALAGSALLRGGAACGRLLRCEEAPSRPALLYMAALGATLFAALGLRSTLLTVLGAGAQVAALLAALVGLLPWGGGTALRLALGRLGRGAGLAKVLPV
UniProt Q96FS4: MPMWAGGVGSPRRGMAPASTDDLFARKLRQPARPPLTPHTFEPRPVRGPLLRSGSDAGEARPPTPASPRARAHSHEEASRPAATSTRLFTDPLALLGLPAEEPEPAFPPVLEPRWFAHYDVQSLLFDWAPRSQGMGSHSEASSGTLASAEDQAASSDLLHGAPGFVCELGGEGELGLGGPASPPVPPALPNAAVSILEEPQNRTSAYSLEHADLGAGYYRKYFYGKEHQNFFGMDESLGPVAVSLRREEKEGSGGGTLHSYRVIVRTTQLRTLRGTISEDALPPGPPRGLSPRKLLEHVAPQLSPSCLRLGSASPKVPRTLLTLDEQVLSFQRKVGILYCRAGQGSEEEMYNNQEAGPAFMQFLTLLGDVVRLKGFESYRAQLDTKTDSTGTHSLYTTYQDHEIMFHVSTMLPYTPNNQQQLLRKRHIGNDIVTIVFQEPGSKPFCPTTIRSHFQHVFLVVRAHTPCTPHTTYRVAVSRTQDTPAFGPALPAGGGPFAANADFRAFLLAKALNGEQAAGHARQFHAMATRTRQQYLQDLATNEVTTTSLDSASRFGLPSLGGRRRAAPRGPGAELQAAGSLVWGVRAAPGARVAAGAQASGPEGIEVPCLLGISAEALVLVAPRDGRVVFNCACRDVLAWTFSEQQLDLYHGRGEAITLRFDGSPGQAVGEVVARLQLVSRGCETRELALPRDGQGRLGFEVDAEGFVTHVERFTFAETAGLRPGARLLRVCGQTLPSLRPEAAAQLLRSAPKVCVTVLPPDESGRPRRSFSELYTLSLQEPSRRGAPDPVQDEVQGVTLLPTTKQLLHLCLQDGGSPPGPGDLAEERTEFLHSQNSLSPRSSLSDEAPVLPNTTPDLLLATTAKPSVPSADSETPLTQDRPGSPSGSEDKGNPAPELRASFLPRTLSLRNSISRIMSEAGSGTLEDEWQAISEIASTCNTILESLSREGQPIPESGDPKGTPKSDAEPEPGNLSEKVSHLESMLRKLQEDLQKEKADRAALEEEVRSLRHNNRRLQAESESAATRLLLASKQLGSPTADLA

Legend:
Assay in all cases: log2 fold change, soluble protein after heating vs DMSO (PISA); higher = thermal stabilisation; K562 cells, 10 uM, 30 min; active = over 0.2 and 3.5 SD of the protein, either way, in both replicates (recomputed)
saracatinib = compound: CN1CCN(CCOc2cc(OC3CCOCC3)c3c(Nc4c(Cl)ccc5c4OCO5)ncnc3c2)CC1 [saracatinib]
Outline: (§1)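 K562 cells at 2×10^6 cells/mL were given 10 μM compound for 30 min. Aliquots then went through 3 min of heating across 48°C-58°C, were pooled, and were extracted in PBS with 0.5% NP-40 at 4°C, and the supernatant after 21,000xg for 90 min was quantified by TMTpro 16plex LC-MS/MS with channel sums equalised. Thermal stability relative to control samples, from duplicates, is given as log2 fold change.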

sotrastaurin = compound: CN1CCN(c2nc(C3=C(c4c[nH]c5ccccc45)C(=O)NC3=O)c3ccccc3n2)CC1 [sotrastaurin]
Outline: as §1

alvocidib = compound: CN1CC[C@H](c2c(O)cc(O)c3c(=O)cc(-c4ccccc4Cl)oc23)[C@H](O)C1 [alvocidib]
Outline: as §1

Tubastatin A = compound: CN1CCc2c(c3ccccc3n2Cc2ccc(C(=O)NO)cc2)C1 [Tubastatin A]
Outline: as §1

[1] = compound: CNC(=O)C1=CC=CC=C1NC2=NC(=NC=C2Cl)NC3=C(C=C(C=C3)N4CCOCC4)OC
Outline: as §1

defactinib = compound: CNC(=O)c1ccc(Nc2ncc(C(F)(F)F)c(NCc3nccnc3N(C)S(C)(=O)=O)n2)cc1 [defactinib]
Outline: as §1

rucaparib = compound: CNCc1ccc(-c2[nH]c3cc(F)cc4c3c2CCNC4=O)cc1 [rucaparib]
Outline: as §1

[2] = compound: CNc1nc(-c2ccc3c(N)n[nH]c3c2)cc(N2C[C@@H](C(=O)NC3CCCCC3)CC[C@H]2C)n1
Outline: as §1

encorafenib = compound: COC(=O)N[C@@H](C)CNc1nccc(-c2cn(C(C)C)nc2-c2cc(Cl)cc(NS(C)(=O)=O)c2F)n1 [encorafenib]
Outline: as §1

[3] = compound: COC(=O)[C@H](CCSC)NC(=O)C1=C(C=C(C=C1)NC[C@H](CS)N)C2=CC=CC=C2
Outline: as §1

[4] = compound: COC1=CC=C(C=C1)CN2C=CC3=C2C=C(C=C3)C(=O)NO
Outline: as §1

filanesib = compound: CON(C)C(=O)N1N=C(c2cc(F)ccc2F)S[C@@]1(CCCN)c1ccccc1 [filanesib]
Outline: as §1

zotarolimus = compound: CO[C@H]1C[C@@H]2CC[C@@H](C)[C@@](O)(O2)C(=O)C(=O)N2CCCC[C@H]2C(=O)O[C@H]([C@H](C)C[C@@H]2CC[C@H](n3cnnn3)[C@H](OC)C2)CC(=O)[C@H](C)/C=C(\C)[C@@H](O)[C@@H](OC)C(=O)[C@H](C)C[C@H](C)/C=C/C=C/C=C/1C [zotarolimus]
Outline: as §1

idasanutlin = compound: COc1cc(C(=O)O)ccc1NC(=O)[C@@H]1N[C@@H](CC(C)(C)C)[C@](C#N)(c2ccc(Cl)cc2F)[C@H]1c1cccc(Cl)c1F [idasanutlin]
Outline: as §1

alisertib = compound: COc1cc(Nc2ncc3c(n2)-c2ccc(Cl)cc2C(c2c(F)cccc2OC)=NC3)ccc1C(=O)O [alisertib]
Outline: as §1

[5] = compound: COc1cc2nc(-c3cc(F)ccc3O)nc(N[C@@H]3CNC[C@H]3C(C)(C)O)c2cc1OC
Outline: as §1

gefitinib = compound: COc1cc2ncnc(Nc3ccc(F)c(Cl)c3)c2cc1OCCCN1CCOCC1 [gefitinib]
Outline: as §1

[6] = compound: COc1cccc2cc(-c3nc([C@H]4CC[C@H](C(=O)O)CC4)n4ncnc(N)c34)[nH]c12
Outline: as §1

lapatinib = compound: CS(=O)(=O)CCNCc1ccc(-c2ccc3ncnc(Nc4ccc(OCc5cccc(F)c5)c(Cl)c4)c3c2)o1 [lapatinib]
Outline: as §1

pictilisib = compound: CS(=O)(=O)N1CCN(Cc2cc3nc(-c4cccc5[nH]ncc45)nc(N4CCOCC4)c3s2)CC1 [pictilisib]
Outline: as §1

Measured: log2 fold change

SEPHS1 (UniProt P49903)
inactive: saracatinib -0.002 | sotrastaurin -0.048 | alvocidib -0.058 | Tubastatin A 0.017 | [1] -0.041 | defactinib -0.017 | rucaparib -0.052 | [2] 0.023 | encorafenib 0.004 | [3] 0.027 | [4] 0.041 | filanesib -0.114 | zotarolimus -0.024 | idasanutlin 0.01 | alisertib -0.055 | [5] -0.039 | gefitinib -0.02 | [6] 0.008 | lapatinib 0.026 | pictilisib 0.06

SESN2 (UniProt P58004)
inactive: saracatinib -0.009 | sotrastaurin -0.222 | Tubastatin A 0.131 | [1] 0.039 | defactinib -0.229 | rucaparib 0.044 | [2] 0.09 | encorafenib 0.041 | [3] -0.121 | [4] 0.013 | filanesib -0.174 | zotarolimus 0.099 | idasanutlin -0.107 | alisertib -0.005 | [5] -0.112 | gefitinib 0.08 | [6] -0.085 | lapatinib 0.25 | pictilisib 0.167

SERBP1 (UniProt Q8NC51)
inactive: saracatinib -0.064 | sotrastaurin 0.111 | alvocidib 0.128 | Tubastatin A 0.013 | [1] -0.028 | defactinib 0.102 | rucaparib 0.105 | [2] 0.015 | encorafenib 0.014 | [3] 0.011 | [4] -0.107 | filanesib 0.184 | zotarolimus -0.02 | idasanutlin 0.115 | alisertib -0.038 | [5] -0.021 | gefitinib -0.003 | [6] -0.001 | lapatinib -0.038 | pictilisib -0.035

Reprinted from above (two entries):
SEPHS1 (UniProt P49903)
inactive: saracatinib -0.002 | sotrastaurin -0.048 | alvocidib -0.058 | Tubastatin A 0.017 | [1] -0.041 | defactinib -0.017 | rucaparib -0.052 | [2] 0.023 | encorafenib 0.004 | [3] 0.027 | [4] 0.041 | filanesib -0.114 | zotarolimus -0.024 | idasanutlin 0.01 | alisertib -0.055 | [5] -0.039 | gefitinib -0.02 | [6] 0.008 | lapatinib 0.026 | pictilisib 0.06

SESN2 (UniProt P58004)
inactive: saracatinib -0.009 | sotrastaurin -0.222 | Tubastatin A 0.131 | [1] 0.039 | defactinib -0.229 | rucaparib 0.044 | [2] 0.09 | encorafenib 0.041 | [3] -0.121 | [4] 0.013 | filanesib -0.174 | zotarolimus 0.099 | idasanutlin -0.107 | alisertib -0.005 | [5] -0.112 | gefitinib 0.08 | [6] -0.085 | lapatinib 0.25 | pictilisib 0.167

Carrying on.

SFXN4 (UniProt Q6P4A7)
inactive: saracatinib 0.051 | sotrastaurin 0.024 | alvocidib 0.024 | Tubastatin A -0.019 | [1] 0.002 | defactinib -0.013 | rucaparib -0.045 | [2] 0.004 | encorafenib 0.016 | [3] -0.004 | [4] 0.045 | filanesib -0.035 | zotarolimus -0.031 | idasanutlin 0.006 | alisertib -0.062 | [5] 0 | gefitinib 0.022 | [6] 0.075 | lapatinib 0.008 | pictilisib -0.035

SHROOM2 (UniProt Q13796)
inactive: saracatinib -0.118 | sotrastaurin 0.128 | Tubastatin A 0.283 | [1] -0.29 | defactinib 0.059 | rucaparib -0.049 | [2] 0.08 | encorafenib -0.136 | [3] 0.1 | [4] 0.417 | filanesib 0.066 | zotarolimus 0.02 | idasanutlin -0.045 | alisertib -0.027 | [5] 0.237 | gefitinib 0.056 | [6] 0.009 | lapatinib -0.188 | pictilisib 0.226

SFT2D2 (UniProt O95562)
inactive: saracatinib 0.127 | sotrastaurin 0.066 | alvocidib -0.211 | Tubastatin A -0.067 | [1] -0.014 | defactinib -0.095 | rucaparib 0.107 | [2] 0.194 | encorafenib -0.259 | [3] 0.112 | filanesib -0.058 | zotarolimus 0.038 | idasanutlin 0.094 | alisertib 0.018 | [5] 0.071 | gefitinib -0.067 | [6] 0.033 | lapatinib -0.031 | pictilisib 0.046

SKA1 (UniProt Q96BD8)
inactive: saracatinib -0.174 | sotrastaurin -0.154 | alvocidib 0.008 | defactinib -0.053 | rucaparib 0.489 | [2] -0.17 | encorafenib 0.253 | [3] -0.009 | [4] -0.052 | filanesib 0.08 | zotarolimus 0.091 | alisertib -0.29 | [5] -0.011 | gefitinib -0.018 | [6] -0.206 | lapatinib 0.011 | pictilisib -0.007

SENP6 (UniProt Q9GZR1)
inactive: saracatinib 0.028 | sotrastaurin -0.008 | Tubastatin A 0.063 | [1] -0.018 | defactinib -0.131 | rucaparib 0.003 | [2] -0.034 | encorafenib 0.016 | [3] 0 | [4] 0.029 | filanesib 0.115 | zotarolimus -0.077 | idasanutlin 0.088 | alisertib -0.016 | [5] 0.016 | gefitinib 0.028 | [6] 0.039 | lapatinib 0.066 | pictilisib 0.076

SGPL1 (UniProt O95470)
inactive: saracatinib -0.014 | sotrastaurin 0.03 | Tubastatin A -0.031 | [1] 0.064 | defactinib 0.012 | rucaparib 0.1 | [2] 0.015 | encorafenib 0.08 | [3] -0.157 | [4] -0.064 | filanesib 0.107 | zotarolimus -0.011 | idasanutlin 0.051 | alisertib -0.046 | [5] 0.012 | gefitinib 0.001 | [6] -0.115 | lapatinib 0.04 | pictilisib -0.013

SF1 isoform 6 (UniProt Q15637)
inactive: saracatinib 0.015 | sotrastaurin 0.012 | alvocidib -0.269 | Tubastatin A -0.125 | [1] 0.109 | defactinib -0.059 | rucaparib 0.095 | [2] 0.035 | encorafenib -0.142 | [3] -0.019 | [4] 0.04 | filanesib 0.074 | zotarolimus 0.107 | idasanutlin -0.08 | alisertib 0.098 | [5] 0.054 | gefitinib -0.081 | [6] 0.091 | lapatinib -0.036 | pictilisib 0.054

SHCBP1 (UniProt Q8NEM2)
inactive: saracatinib -0.044 | sotrastaurin 0.017 | Tubastatin A 0.174 | [1] -0.061 | defactinib -0.194 | rucaparib -0.104 | [2] -0.081 | encorafenib 0.149 | [3] -0.018 | [4] -0.014 | filanesib 0.059 | zotarolimus 0.103 | idasanutlin -0.023 | alisertib 0.134 | [5] 0.102 | gefitinib 0 | [6] -0.056 | lapatinib -0.13 | pictilisib -0.057

SKA3 (UniProt Q8IX90)
inactive: saracatinib -0.045 | sotrastaurin -0.068 | alvocidib 0.078 | Tubastatin A 0.09 | [1] 0.03 | defactinib 0.033 | rucaparib 0.149 | [2] -0.015 | encorafenib 0.025 | [3] 0.124 | [4] -0.009 | filanesib 0.153 | zotarolimus 0.024 | alisertib -0.107 | [5] -0.058 | gefitinib -0.01 | [6] -0.114 | lapatinib 0.025 | pictilisib -0.131

SEH1L isoform 1 (UniProt Q96EE3)
inactive: saracatinib 0.009 | sotrastaurin -0.022 | Tubastatin A -0.015 | [1] -0.029 | defactinib -0.012 | rucaparib -0.016 | [2] -0.053 | encorafenib 0.025 | [3] -0.007 | [4] -0.004 | filanesib 0.012 | zotarolimus -0.03 | idasanutlin -0.014 | alisertib -0.024 | [5] 0.025 | gefitinib 0.015 | [6] 0.038 | lapatinib -0.045 | pictilisib 0.017

SH3GL1 (UniProt Q99961)
inactive: saracatinib -0.157 | sotrastaurin -0.163 | Tubastatin A 0.092 | [1] -0.035 | defactinib -0.116 | rucaparib 0.022 | [2] 0.054 | encorafenib 0.062 | [3] -0.043 | [4] 0.046 | filanesib -0.047 | zotarolimus 0.062 | idasanutlin 0 | alisertib 0.012 | [5] 0 | gefitinib -0.029 | [6] -0.048 | lapatinib -0.008 | pictilisib -0.005

SFT2D3 (UniProt Q587I9)
inactive: saracatinib 0.018 | sotrastaurin -0.011 | alvocidib 0.014 | Tubastatin A 0.01 | [1] 0.072 | defactinib 0.027 | rucaparib -0.043 | [2] 0.012 | encorafenib -0.047 | [3] -0.071 | [4] 0.024 | filanesib 0.052 | zotarolimus 0.058 | alisertib -0.164 | [5] -0.062 | gefitinib 0.145 | [6] 0.123 | lapatinib 0 | pictilisib -0.014

SIPA1 (UniProt Q96FS4)
inactive: saracatinib -0.005 | sotrastaurin -0.029 | alvocidib -0.046 | Tubastatin A 0 | [1] -0.031 | defactinib 0.008 | rucaparib 0.026 | [2] 0.045 | encorafenib -0.01 | [3] 0.002 | [4] -0.108 | filanesib 0.059 | zotarolimus 0.025 | idasanutlin 0.014 | alisertib 0.069 | [5] -0.027 | gefitinib 0.041 | [6] -0.018 | lapatinib 0 | pictilisib -0.042

SERPINA7 (UniProt P05543)
inactive: saracatinib 0.339 | sotrastaurin 0.395 | Tubastatin A -0.169 | [1] 0.147 | defactinib 0.056 | rucaparib -0.145 | [2] 0.061 | encorafenib -0.085 | [3] 0.078 | [4] -0.213 | filanesib 0.251 | zotarolimus -0.206 | idasanutlin 0.071 | alisertib 0.052 | [5] 0.008 | gefitinib -0.157 | [6] 0.381 | lapatinib -0.017 | pictilisib -0.088
